In the supplement of paper PMC6411743:
± gives the standard deviation of the averaged measurements. This is a selection; strong and weak results do not stand in their true shares.

Sequences of proteins named here, by UniProt entry; tags and fusion partners are left off. A change or cut given only in a name is not applied to a line headed by its entry.
UniProt P27695, whole entry: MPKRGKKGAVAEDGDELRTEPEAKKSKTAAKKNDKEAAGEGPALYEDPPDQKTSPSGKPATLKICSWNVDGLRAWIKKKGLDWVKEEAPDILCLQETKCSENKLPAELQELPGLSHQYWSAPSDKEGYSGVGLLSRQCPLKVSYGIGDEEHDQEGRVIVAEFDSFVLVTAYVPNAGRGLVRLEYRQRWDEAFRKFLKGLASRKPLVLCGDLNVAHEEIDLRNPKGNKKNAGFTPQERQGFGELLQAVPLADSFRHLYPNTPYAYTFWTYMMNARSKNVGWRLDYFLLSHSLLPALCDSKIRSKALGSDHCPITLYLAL
UniProt P52789: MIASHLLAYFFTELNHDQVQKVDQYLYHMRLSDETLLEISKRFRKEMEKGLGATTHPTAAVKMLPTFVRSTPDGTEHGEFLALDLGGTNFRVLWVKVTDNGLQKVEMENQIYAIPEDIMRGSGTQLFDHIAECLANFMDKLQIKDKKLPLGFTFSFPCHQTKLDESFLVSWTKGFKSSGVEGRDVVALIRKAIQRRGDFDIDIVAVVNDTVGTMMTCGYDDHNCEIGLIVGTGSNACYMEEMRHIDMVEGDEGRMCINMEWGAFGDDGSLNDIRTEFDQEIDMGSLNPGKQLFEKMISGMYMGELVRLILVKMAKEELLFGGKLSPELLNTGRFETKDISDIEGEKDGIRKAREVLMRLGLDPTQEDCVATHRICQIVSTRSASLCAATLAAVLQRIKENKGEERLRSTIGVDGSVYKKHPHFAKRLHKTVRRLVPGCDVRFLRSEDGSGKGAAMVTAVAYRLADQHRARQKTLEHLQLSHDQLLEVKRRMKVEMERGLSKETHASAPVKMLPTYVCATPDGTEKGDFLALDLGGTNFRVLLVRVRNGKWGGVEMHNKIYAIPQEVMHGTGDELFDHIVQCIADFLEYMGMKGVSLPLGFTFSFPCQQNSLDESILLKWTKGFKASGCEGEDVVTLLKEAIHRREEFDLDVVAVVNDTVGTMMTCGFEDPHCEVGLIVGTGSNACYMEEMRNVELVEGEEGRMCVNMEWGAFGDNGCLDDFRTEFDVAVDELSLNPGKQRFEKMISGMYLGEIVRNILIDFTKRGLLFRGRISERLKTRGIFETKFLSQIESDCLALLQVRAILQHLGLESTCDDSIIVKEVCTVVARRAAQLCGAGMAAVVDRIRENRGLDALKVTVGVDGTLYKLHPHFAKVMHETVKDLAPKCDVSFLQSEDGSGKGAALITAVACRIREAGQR
UniProt Q00537: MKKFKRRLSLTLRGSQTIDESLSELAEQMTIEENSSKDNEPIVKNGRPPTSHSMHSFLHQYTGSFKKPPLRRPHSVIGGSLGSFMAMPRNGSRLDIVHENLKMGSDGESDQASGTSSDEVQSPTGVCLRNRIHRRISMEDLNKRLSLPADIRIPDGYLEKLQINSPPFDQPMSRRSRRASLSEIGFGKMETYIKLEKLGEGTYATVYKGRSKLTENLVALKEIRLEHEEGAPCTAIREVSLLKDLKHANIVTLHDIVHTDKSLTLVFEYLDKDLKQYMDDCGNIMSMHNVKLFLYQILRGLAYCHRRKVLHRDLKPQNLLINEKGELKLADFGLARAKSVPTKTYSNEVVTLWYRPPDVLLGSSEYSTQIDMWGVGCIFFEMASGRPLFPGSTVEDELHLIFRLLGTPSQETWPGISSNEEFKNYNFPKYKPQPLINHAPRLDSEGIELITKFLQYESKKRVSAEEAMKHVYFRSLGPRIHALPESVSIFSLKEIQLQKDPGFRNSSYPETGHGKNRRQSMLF
UniProt P63208, whole entry: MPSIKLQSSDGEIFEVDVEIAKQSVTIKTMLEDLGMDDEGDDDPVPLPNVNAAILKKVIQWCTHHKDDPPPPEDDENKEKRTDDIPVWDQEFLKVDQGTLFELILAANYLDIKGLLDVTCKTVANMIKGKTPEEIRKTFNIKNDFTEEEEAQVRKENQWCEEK
UniProt Q9Y478: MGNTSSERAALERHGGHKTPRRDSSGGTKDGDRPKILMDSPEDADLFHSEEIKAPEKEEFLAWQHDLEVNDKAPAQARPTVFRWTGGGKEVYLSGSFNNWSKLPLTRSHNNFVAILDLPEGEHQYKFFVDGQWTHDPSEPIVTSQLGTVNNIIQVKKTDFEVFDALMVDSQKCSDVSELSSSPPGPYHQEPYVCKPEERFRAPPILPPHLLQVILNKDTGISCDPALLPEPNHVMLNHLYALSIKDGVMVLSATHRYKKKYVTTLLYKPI
UniProt P11413, whole entry: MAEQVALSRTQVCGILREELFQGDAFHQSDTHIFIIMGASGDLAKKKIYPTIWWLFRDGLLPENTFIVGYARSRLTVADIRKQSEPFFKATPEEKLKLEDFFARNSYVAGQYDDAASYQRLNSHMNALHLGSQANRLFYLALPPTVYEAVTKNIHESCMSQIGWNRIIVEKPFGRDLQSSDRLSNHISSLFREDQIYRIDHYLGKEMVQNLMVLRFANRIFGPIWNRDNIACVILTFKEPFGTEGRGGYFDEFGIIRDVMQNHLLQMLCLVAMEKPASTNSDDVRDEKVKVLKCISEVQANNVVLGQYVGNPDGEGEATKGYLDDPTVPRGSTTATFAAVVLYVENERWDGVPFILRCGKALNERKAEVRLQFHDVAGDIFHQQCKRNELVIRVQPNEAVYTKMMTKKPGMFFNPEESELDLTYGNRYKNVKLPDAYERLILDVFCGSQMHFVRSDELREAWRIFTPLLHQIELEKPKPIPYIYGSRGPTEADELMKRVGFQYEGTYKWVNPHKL
UniProt Q4G0X4: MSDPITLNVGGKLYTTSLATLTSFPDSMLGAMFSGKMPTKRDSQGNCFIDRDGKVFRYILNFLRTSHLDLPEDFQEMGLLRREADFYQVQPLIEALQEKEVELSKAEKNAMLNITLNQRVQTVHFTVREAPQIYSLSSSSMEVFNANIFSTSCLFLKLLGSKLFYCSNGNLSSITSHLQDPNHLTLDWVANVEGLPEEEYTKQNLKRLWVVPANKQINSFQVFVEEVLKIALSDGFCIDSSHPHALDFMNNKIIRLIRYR

Compound: Nc1ncnc2c1ncn2[C@@H]1O[C@H](COP(=O)(O)OP(=O)(O)NP(=O)(O)O)[C@@H](O)[C@H]1O [adenylyl imidodiphosphate]
Test: NP40-soluble protein abundance relative to vehicle (solubility fold change) (ratio); higher = more soluble protein in presence of AMP-PNP
Summary of the method: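 Jurkat crude lysate prepared with a Dounce homogeniser was treated at eight concentrations spanning 0.1 to 10 mM, 10 min at room temperature then 3 min at 37 °C. Solubilisation with 0.8% NP40 and benzonase and ultracentrifugation preceded TMT labelling of the supernatant for LC-MS/MS. Fold change against the detergent-processed vehicle was determined per replicate from vsn-normalised intensities, across three independent experiments.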

Row | Target | NP40-soluble protein abundance (concentration: 1mM) | NP40-soluble protein abundance (concentration: 2mM) | NP40-soluble protein abundance (concentration: 4mM) | NP40-soluble protein abundance (concentration: 6mM) | NP40-soluble protein abundance (concentration: 8mM) | NP40-soluble protein abundance (concentration: 10mM)
1 | G3V3M6 and related entries (UniProt P27695) | 1.04 ± 0.047 | 1.13 ± 0.079 | 1.06 ± 0.02 | 1.15 ± 0.038 | 1.12 ± 0.057 | 1.16 ± 0.044
2 | E9PLL6 and related entries (UniProt P46776) | 0.984 ± 0.086 | 0.964 ± 0.083 | 0.947 ± 0.073 | 0.948 ± 0.016 | 0.892 ± 0.039 | 1.04 ± 0.14
3 | E9PB90 and related entries (UniProt P52789) | 0.977 ± 0.014 | 0.983 ± 0.021 | 1.02 ± 0.051 | 0.99 ± 0.024 | 0.988 ± 0.022 | 1.015 ± 0.0054
4 | F8W1S5 and related entries (UniProt Q00537) | 1.013 ± 0.009 | 0.997 ± 0.049 | 0.984 ± 0.019 | 0.992 ± 0.015 | 0.985 ± 0.025 | 1 ± 0.028
5 | E5RJR5 and related entries (UniProt P63208) | 1 ± 0.017 | 1.07 ± 0.026 | 0.984 ± 0.032 | 0.979 ± 0.031 | 0.953 ± 0.018 | 0.962 ± 0.029
6 | F5H610 and related entries (UniProt Q9Y478) | 1.01 ± 0.023 | 0.9916 ± 0.0069 | 0.992 ± 0.03 | 0.945 ± 0.053 | 0.932 ± 0.037 | 0.911 ± 0.029
7 | E9PB61 and related entries (UniProt Q86V81) | 0.969 ± 0.032 | 1.08 ± 0.042 | 1.09 ± 0.027 | 1.27 ± 0.081 | 1.41 ± 0.14 | 1.6 ± 0.28
8 | E7EUI8 and related entries (UniProt P11413) | 0.974 ± 0.049 | 0.852 ± 0.14 | 0.946 ± 0.026 | 0.928 ± 0.041 | 0.981 ± 0.028 | 0.892 ± 0.021
9 | E9PJJ5 and related entries (UniProt Q4G0X4) | 1 ± 0.012 | 0.998 ± 0.037 | 0.981 ± 0.02 | 0.976 ± 0.042 | 0.976 ± 0.029 | 0.964 ± 0.02
